{
  "source": "patent US4748179A",
  "about": "“β-carbolin-3-carboxylic acid derivatives and their use as benzodiazepine antagonists” (Schering Aktiengesellschaft, priority 1983, dated 1988)",
  "test_system": "pentazole-induced seizures in diazepam-treated NMRI mice",
  "assay": "Antagonism of benzodiazepine (diazepam) action on pentazole-induced seizures",
  "assay_type": "in vivo",
  "conditions": "5 mg/kg i.p. 30 minutes before pentazole 150 mg/kg s.c.",
  "data": [
    {"smiles": "CN1C(=O)CN=C(c2ccccc2)c2cc(Cl)ccc21", "note": "[Diazepam, reference compound]", "values": [
      {"measurement": "inhibition of pentazole-induced seizures", "result": "totally inhibit the seizures"}
    ]}
  ]
}
